Measured values published in the supplement of paper PMC8551327.
Structures can show the parent of a compound that is named as a salt. Some of the results follow. Rule as the data show it: active = 1.25 or more and inactive = the rest. Most values come without repeats; read them as rough.

test system: Kcc2-LUC knock-in mouse primary cortical neurons (Kcc2 promoter reporter); experiment: Kcc2 promoter-driven luciferase activity relative to vehicle control (fold of vehicle (ratio)); higher = stronger Kcc2 promoter activation (Kcc2 expression enhancer); conditions: 100 nM; 48 h

SMILES | Kcc2 promoter-driven luciferase activity
O=[N+]([O-])c1cc(C(F)(F)F)cc2n[se]nc12 [4-Nitro-6-(trifluoromethyl)-2,1,3-benzoselenadiazole] | inactive: 1.09
O=C1C=C2C(=CCOC2O)O1 (centres undefined) [Patulin] | active: 1.63
COc1cc([C@@H]2c3cc4c(c(O)c3C[C@H]3COC(=O)[C@@H]32)OCO4)cc(OC)c1OC [Beta-Peltatin] | inactive: 0.4
NC(=O)c1cn(C2OC(CO)C(O)C2O)c2ncnc(N)c12 (centres undefined) [Sauzivamycin] | inactive: 1.22
C/C=C1\C[C@@H](C)[C@](O)(CO)C(=O)OCC2=CCN3CC[C@@H](OC1=O)[C@@H]23 [Retrorsine] | inactive: 0.894
COc1ccc2c(c1O)[C@]13CCN(C)[C@H](C2)[C@@H]1CCC(=O)C3 [Dihydrothebainone] | inactive: 0.47
CC[C@](C)(O)C(=O)O[C@H]1C(=O)O[C@@H]2C[C@H]3C(C)=CC(=O)[C@@H](O)[C@]3(C)[C@H]3C4(O)OC[C@]32[C@@H]1[C@@H](C)[C@H]4O | inactive: 0.681
Cc1c(N)nc([C@H](CC(N)=O)NC[C@H](N)C(N)=O)nc1C(=O)N[C@H](C(=O)N[C@H](C)[C@@H](O)[C@H](C)C(=O)N[C@H](C(=O)NCCc1nc(-c2nc(C(=O)NCCC[S+](C)C)cs2)cs1)[C@@H](C)O)[C@@H](OC1OC(CO)C(O)C(O)C1OC1OC(CO)C(O)C(OC(N)=O)C1O)c1cnc[nH]1 (some centres undefined) [Bleomycin Sulfate] | inactive: 0.99
CNC(=O)ON(C(C)=O)C(=O)NC [Caracemide] | inactive: 1.11

Given as a markdown table: 2 of the compounds above

| SMILES | Kcc2 promoter-driven luciferase activity |
| --- | --- |
| O=[N+]([O-])c1cc(C(F)(F)F)cc2n[se]nc12 [4-Nitro-6-(trifluoromethyl)-2,1,3-benzoselenadiazole] | inactive: 1.09 |
| CNC(=O)ON(C(C)=O)C(=O)NC [Caracemide] | inactive: 1.11 |
